According to PubChem BioAssay AID2685 (National Center for Advancing Translational Sciences (NCATS), 2010):
Some of the results follow. The main result of the screen is listed elsewhere. These columns were measured beside it and carry no call. The list favours compounds with an active or inconclusive main result. Potencies come from curve fits of mixed quality, noted in brackets.

Assay: qHTS Assay for Lipid Storage Modulators in Drosophila S3 Cells;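 on cell number change: cells counted by Cell Tracker Red CMTPX staining in the red channel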
Conditions: BODIPY lipid droplet fluorescence, 18-24 h; for cell number change: measured here: cell count max response, cells fed with added oleic acid
Outline: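 Drosophila S3 cells got compounds at several concentrations plus oleic acid (400 uM solution). Laser-scanning cytometry with 488 nm excitation read lipid droplets at 500-530 nm and cells at 575-640 nm. Percent activity was relative to 20 uM Triacsin C.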

[1] = measured here: lipid fluorescence (Fed channel) AC50, cells fed with added oleic acid
[2] = measured here: cell number channel AC50, cells fed with added oleic acid

Compound | cell number change [%] | AC50 [1] | AC50 [2]
Cc1ccc(NC(=S)N/N=C2\CC(C)(C)Oc3ccc(O)cc32)cc1 | -28.6 | 29.1 µM [falling, single point] | –
CCCCn1c(SCC(=O)N(CC)C2CCS(=O)(=O)C2)nnc1C(CC)N(C)C (configuration not stated) | -42.1 | 29.1 µM [falling, single point] | 3.66 µM [falling, full curve]
CCCc1cc(=O)oc2cc(C)cc(OCC(=O)Nc3ccccn3)c12 | 9.92 | 2.31 µM [falling, partial curve] | –
Cc1nc(N)nc(COc2ccccc2)n1 | 15.5 | 0.517 µM [rising, full curve] | –
CSc1nc2ccc(Nc3nc(N4CCOCC4)nc(N4CCOCC4)n3)cc2s1 | – | – | 1.84 µM [rising, partial curve]
CCN1C(=S)N[C@@H](c2cccc(C(F)(F)F)c2)C(C(=O)OC)=C1C | -2.03 | 29.1 µM [falling, single point] | –
COc1cc(-c2nc(S(=O)(=O)c3ccc(Cl)cc3)c(N3CCOCC3)o2)cc(OC)c1OC | 5.23 | 0.731 µM [rising, single point] | –
COc1ccc(NC(=O)N2CCN(C(=O)c3ccco3)CC2)c(OC)c1 | 18.8 | – | –
COc1cc(C(=O)NCC2CCCO2)cc(Br)c1OCc1ccccc1 (configuration not stated) | -5.19 | – | –
O=C(CCCc1c[nH]c2ccccc12)NCc1ccc2c(c1)OCO2 | 24.4 | 16.4 µM [rising, single point] | –
O=C(O)Cn1c(=S)sc2ccccc21 | -12 | 0.82 µM [falling, single point] | –
Cc1ccc([N+](=O)[O-])c(NC2OC(CO)C(O)C2O)c1 (configuration not stated) | -4.3 | – | 0.731 µM [falling, single point]
COc1ccc(-c2c(NC(=O)c3ccco3)oc3c(C)cccc3c2=O)cc1OC | -13 | 6.51 µM [rising, single point] | –
O=C(Cc1ccc(Cl)cc1)Nc1ccc(C(=O)N2CCOCC2)cc1 | – | – | 0.00461 µM [rising, full curve, poor fit]
O=C(NCCN1C(=O)S/C(=C\c2cccs2)C1=O)c1ccco1 | 23.6 | 0.461 µM [rising, full curve, poor fit] | –
CC(=O)c1cccc(CN2CCC(n3nccc3NC(=O)CCOc3ccccc3)CC2)c1 | 55.9 | 18.4 µM [rising, partial curve] | –
Cc1nn(C)cc1S(=O)(=O)Nc1ncccn1 | 12.4 | – | –
Fc1cccc(Cl)c1C1Nc2cccc3cccc(c23)N1 | -53.6 | – | 9.2 µM [falling, partial curve]
COc1ccc(/C=N/N2C(C)CCCC2C)cc1OC (configuration not stated) | -0.709 | 3.26 µM [rising, full curve, poor fit] | –
O=C(Cc1ccc2c(c1)OCCO2)c1c(O)cc(O)cc1O | 0.101 | 0.731 µM [rising, full curve] | –

Compound | cell number change [%] | AC50 [1] | AC50 [2]
O=S(=O)(c1cc(C(F)(F)F)ccc1Cl)N1CCN(c2ncnc3ccccc23)CC1 | -48.3 | – | 9.2 µM [falling, partial curve]
CC1CCN(CCCOc2ccc(Br)cc2Cl)CC1 | -6.34 | 29.1 µM [falling, partial curve, poor fit] | 0.164 µM [falling, full curve, poor fit]
Cc1ccc(C)n1-c1ccc(C(=O)NCc2ccncc2)cc1 | – | 3.26 µM [rising, single point] | 4.11 µM [rising, partial curve, poor fit]
CCC(=O)Nc1nc2c(c(=O)[nH]1)CCCC2 | – | – | 6.51 µM [falling, single point]
Cc1snc2sc(C(=O)c3ccc(F)cc3)c(N)c12 | 11.2 | 2.91 µM [rising, full curve, poor fit] | –
COc1cc(OC)cc(C(=O)N[C@H](C(=O)Nc2nc3c(s2)CCCC3)C(C)C)c1 | 4.63 | – | –
CCOC(=O)C1=C(C)NC(=O)NC1c1ccc(-c2ccc(F)cc2)o1 (configuration not stated) | 6.56 | – | –
COc1ccc(NC(=O)NC2(C(=O)N3CCN4CCCC4C3)CCCCC2)cc1 (configuration not stated) | 19.8 | 6.51 µM [rising, single point] | 0.00411 µM [rising, full curve, poor fit]
CC(C)CC(=O)Nc1ccc2nn(-c3ccccc3)nc2c1 | 23.3 | 18.4 µM [rising, single point] | 0.00461 µM [falling, full curve, poor fit]
COc1ccc(C(=O)OCC(=O)NCC2CCCO2)cc1 (configuration not stated) | -6.38 | – | 6.51 µM [rising, single point]
CC(=O)NC12CC3CC(CC(CC(=O)O)(C3)C1)C2 | -18.2 | 1.64 µM [falling, partial curve, poor fit] | –
CCCc1ccccc1OCCNC(C)=O | 4.44 | – | 0.58 µM [falling, full curve]
CCCCOc1ccc(-c2n[nH]c(=S)n2Cc2ccccc2)cc1 | -54.7 | 23.1 µM [falling, partial curve] | 18.4 µM [falling, partial curve]
CN(C)C(=O)c1cc2cc([N+](=O)[O-])ccc2s1 | -21.8 | 2.06 µM [falling, partial curve] | –
COC(CNC(=O)C1CC(=O)N(CCc2ccc(C)cc2)C1)OC (configuration not stated) | 20.6 | 29.1 µM [rising, single point] | –
CC(NC(=O)C(C)N1C(=O)C2C3CC(C(Br)C3Br)C2C1=O)c1ccccc1 (configuration not stated) | -82.7 | – | 2.91 µM [falling, full curve]
COc1ccc(Cl)cc1NC(=O)CN(C)C(=O)c1ccc(N2CCCCC2)c([N+](=O)[O-])c1 | -28.8 | 18.4 µM [falling, single point] | –
CC(NC(=O)c1cccc(F)c1)C(c1cccs1)N1CCN(C)CC1 (configuration not stated) | 148 | 6.51 µM [falling, single point] | 6.51 µM [falling, single point]
Cc1ccc(-c2nc(CSCC(=O)N3CCN(c4ccccn4)CC3)c(C)o2)cc1 | 22 | 2.06 µM [rising, partial curve] | 2.06 µM [rising, partial curve]

Full records, quoted from the list.
`COc1ccc(NC(=O)N2CCN(C(=O)c3ccco3)CC2)c(OC)c1` as listed: cell number change [%]: 18.8
`Cc1ccc([N+](=O)[O-])c(NC2OC(CO)C(O)C2O)c1` (configuration not stated) as listed: cell number change [%]: -4.3; AC50 [2]: 0.731 µM [falling, single point]
